# Tests used:
# MCF-7 = assay: MTT cytotoxicity in 2D monolayer cell culture; format: cell-based; details: Homo sapiens, MCF7; MCF-7, 24 h treatment
# Description: (§1) Cytotoxicity in 2D Monolayer Cell Culture A mouse breast cancer cell line EMT-6 (ATCC, Manassas, Va.), two human breast cancer cell lines MDA-MB-231(ATCC) and MCF-7(ATCC), and one human glioma cancer cell line T98G(ATCC) were used in standard MTT assays (T. Mosmann, J Immunol Methods 65(1-2) (1983) 55-63) to test the cytotoxicity of PAHM polymers with different molecular weight and concentration after 24 and 48 h of treatment. D ox-HCl was also tested for comparison. All of the four cancer cell lines were incubated in corresponding cell culture media, EMT-6 media (DMEM high glucose, 10% FBS, 100 U/mL penicillin/streptomycin), T98G and MDA-MB-231 media (DMEM low glucose, 10% FBS, 100 U/mL penicillin/streptomycin), MCF-7 media (DMEM low glucose, 10% FBS, insulin, 100 U/mL penicillin/streptomycin), at 37° C., and a humidified atmosphere containing 5% CO2.
# (§2) The MTT assay of PAHM polymers and Dox-HCl on EMT-6 cells exemplified the general experimental procedures. EMT-6 cells were seeded into 96-well plates at 5000 cells/well and cultured for 20 h in EMT-6 media at 5% CO2 and 37° C. Afterwards polymers of various molecular weight and concentrations were added to the cells and cultured for 24 h or 48 h. MTT in PBS (5 mg/mL, 20 μL) was then added to each well, reaching a final concentration of 0.5 mg/mL. After 4 h, unreacted MTT was removed by aspiration. The formazan crystals were dissolved in 150 μL of DMSO, and the absorbance was measured at 570 nm using a Bio-Tek Synergy HT plate reader. Cell viability was calculated by [absorbance of cells exposed to polymers]/[absorbance of cells cultured without polymers] in percentage. Cell images were captured before MTT was added using an Olympus IX70 […] microscope under polarized light.
# MDA-MB-231 = assay: MTT cytotoxicity in 2D monolayer cell culture; format: cell-based; details: Homo sapiens
# Description: as §1, §2
smiles,measurement,setting,value
"COc1cccc2c1C(=O)c1c(O)c3c(c(O)c1C2=O)C[C@@](O)(C(=O)CO)C[C@@H]3O[C@H]1C[C@H](N)[C@H](O)[C@H](C)O1 [Dox, doxorubicin]",IC50,MCF-7,30 µg/mL
same,IC50,"MDA-MB-231; MDA-MB-231, 48 h",5 µg/mL
same,IC50,"MDA-MB-231; MDA-MB-231, 24 h treatment",10 to 15 µg/mL

# From patent US11382929B2, “Compositions and methods to treat disease” (REGENTS OF THE UNIVERSITY OF MINNESOTA, priority 2019, dated 2022)
